The assay addresses T1, FGF23 C-terminal tail peptide (FGF23^C-tail) (human).
T1 sequence (peptide): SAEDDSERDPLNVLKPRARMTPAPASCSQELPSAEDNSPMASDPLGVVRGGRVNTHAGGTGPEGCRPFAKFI
Description: fluorescence dye-based thermal shift assay, 1:1 mixture.

These are yes or no findings as the source states them, for the method shown. Some results given as binding are weak or reduced against the parent protein; the word gives no strength.

B1: Soluble human α-Klotho ectodomain (αKlotho^ecto) (receptor)
chain: EPGDGAQTWARVSRPPAPEAAGLFQGTFPDGFLWAVGSAAYQTEGGWQQHGKGASIWDTFTHHPLAPPGDSRNASLPLGAPSPLQPATGDVASDSYNNVFRDTEALRELGVTHYRFSISWARVLPNGSAGVPNREGLRYYRRLLERLRELGVQPVVTLYHWDLPQRLQDAYGGWANRALADHFRDYAELCFRHFGGQVKYWITIDNPYVVAWHGYATGRLAPGIRGSPRLGYLVAHNLLLAHAKVWHLYNTSFRPTQGGQVSIALSSHWINPRRMTDHSIKECQKSLDFVLGWFAKPVFIDGDYPESMKNNLSSILPDFTESEKKFIKGTADFFALCFGPTLSFQLLDPHMKFRQLESPNLRQLLSWIDLEFNHPQIFIVENGWFVSGTTKRDDAKYMYYLKKFIMETLKAIKLDGVDVIGYTAWSLMDGFEWHRGYSIRRGLFYVDFLSQDKMLLPKSSALFYQKLIEKNGFPPLPENQPLEGTFPCDFAWGVVDNYIQVDTTLSQFTDLNVYLWDVHHSKRLIKVDGVVTKKRKSYCVDFAAIQPQIALLQEMHVTHFRFSLDWALILPLGNQSQVNHTILQYYRCMASELVRVNITPVVALWQPMAPNQGLPRLLARQGAWENPYTALAFAEYARLCFQELGHHVKLWITMNEPYTRNMTYSAGHNLLKAHALAWHVYNEKFRHAQNGKISIALQADWIEPACPFSQKDKEVAERVLEFDIGWLAEPIFGSGDYPWVMRDWLNQRNNFLLPYFTEDEKKLIQGTFDFLALSHYTTILVDSEKEDPIKYNDYLEVQEMTDITWLNSPSQVAVVPWGLRKVLNWLKFKYGDLPMYIISNGIDDGLHAEDDQLRVYYMQNYINEALKAHILDGINLCGYFAYSFNDRTAPRFGLYRYAADQFEPKASMKHYRKIIDSNGFPGPETLERFCPEEFTVCTECSFFHTRKS
notes: also called wild-type αKlotho^ecto; soluble αKlotho
B1: the binding result is given as “binds”.

B2: αKlotho^ecto/ΔRBA (soluble αKlotho ectodomain lacking L544 to T565 of the KL2 β1α1 loop) (receptor)
chain: EPGDGAQTWARVSRPPAPEAAGLFQGTFPDGFLWAVGSAAYQTEGGWQQHGKGASIWDTFTHHPLAPPGDSRNASLPLGAPSPLQPATGDVASDSYNNVFRDTEALRELGVTHYRFSISWARVLPNGSAGVPNREGLRYYRRLLERLRELGVQPVVTLYHWDLPQRLQDAYGGWANRALADHFRDYAELCFRHFGGQVKYWITIDNPYVVAWHGYATGRLAPGIRGSPRLGYLVAHNLLLAHAKVWHLYNTSFRPTQGGQVSIALSSHWINPRRMTDHSIKECQKSLDFVLGWFAKPVFIDGDYPESMKNNLSSILPDFTESEKKFIKGTADFFALCFGPTLSFQLLDPHMKFRQLESPNLRQLLSWIDLEFNHPQIFIVENGWFVSGTTKRDDAKYMYYLKKFIMETLKAIKLDGVDVIGYTAWSLMDGFEWHRGYSIRRGLFYVDFLSQDKMLLPKSSALFYQKLIEKNGFPPLPENQPLEGTFPCDFAWGVVDNYIQVDTTLSQFTDKKRKSYCVDFAAIQPQIALLQEMHVTHFRFSLDWALILPLGNQSQVNHTILQYYRCMASELVRVNITPVVALWQPMAPNQGLPRLLARQGAWENPYTALAFAEYARLCFQELGHHVKLWITMNEPYTRNMTYSAGHNLLKAHALAWHVYNEKFRHAQNGKISIALQADWIEPACPFSQKDKEVAERVLEFDIGWLAEPIFGSGDYPWVMRDWLNQRNNFLLPYFTEDEKKLIQGTFDFLALSHYTTILVDSEKEDPIKYNDYLEVQEMTDITWLNSPSQVAVVPWGLRKVLNWLKFKYGDLPMYIISNGIDDGLHAEDDQLRVYYMQNYINEALKAHILDGINLCGYFAYSFNDRTAPRFGLYRYAADQFEPKASMKHYRKIIDSNGFPGPETLERFCPEEFTVCTECSFFHTRKS
notes: the mature protein is E34 to S959; Expressed and purified like the wild type (pEF1α/myc-His A); also called α-Klotho^ecto/deltaRBA; αKlotho^ecto/ΔRBA mutant
As to B2, the binding entry is “binds”.

The record behind these values is patent publication US20210054355A1 (NEW YORK UNIVERSITY, published 2021).
